Assay results as given in article PMC11165477.

Target: T1, AtALS3, tonoplast protein, cYFP fusion (negative control of the BiFC) (Arabidopsis) (UniProt Q9ZUT3)
T1 sequence: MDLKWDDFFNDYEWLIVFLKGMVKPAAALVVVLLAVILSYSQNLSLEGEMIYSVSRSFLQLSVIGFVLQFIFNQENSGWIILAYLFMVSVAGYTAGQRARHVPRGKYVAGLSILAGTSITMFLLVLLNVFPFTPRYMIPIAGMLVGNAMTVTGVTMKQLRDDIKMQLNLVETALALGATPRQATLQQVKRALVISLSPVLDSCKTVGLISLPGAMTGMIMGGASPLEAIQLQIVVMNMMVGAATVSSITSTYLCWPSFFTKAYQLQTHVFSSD
Assay: split reporter; BiFC with split YFP in N. benthamiana leaves; 48 h after agroinfiltration protoplasts isolated and lysed, vacuoles imaged by confocal microscopy

- binding: no binding
Substance: Ma1α (full-length isoform of apple ALMT9/Ma1), split-YFP fusion for BiFC in N. benthamiana

Results are given in words; binding and its absence hold for the method and conditions named. Binding seen in cells or lysates may run through a third protein. Tags and fused reporters may be left off the sequences shown.
